Values joined by “and” are separate entries in the source; they are usually repeats but may differ in a detail not shown here. Equal entries are not always repeated. Where two headings read alike, the source gives them in different places.
Tested on: CqsRp
Conditions: for Ethanolamine concentration in purified CqsRp: 103.3 μM CqsRp, after overexpression in E. coli and purification, average

NCCO [Ethanolamine, ethanolamine]
Concentration (103 µM purified CqsRp, single replicates): 81.2 mM and 85.0 mM and 85.6 mM
Ethanolamine concentration in purified CqsRp: 83.9 ± 2.6 µM
Ethanolamine concentration in purified CqsRp (listed as ethanolamine): 83.9 µM
